Laboratory results published in the supplement of paper PMC3353916.

Tested on: Sindbis virus TE/5'2J-GFP
Experiment: percent infected (GFP+ in RFP+ ISG-expressing cells); higher = more infection (less antiviral activity)
Settings: experiment: primary screen (single well)

ABTB2
percent infected (BHK/HA-Zeo (control)): 96.8%
percent infected (BHK/NZAP-Zeo (ZAP)): 83.2%

AHNAK2
percent infected (BHK/HA-Zeo (control)): 98.6%
percent infected (BHK/NZAP-Zeo (ZAP)): 97.8%

APOBEC3A
percent infected (BHK/HA-Zeo (control)): 98.7%
percent infected (BHK/NZAP-Zeo (ZAP)): 98.3%

ARNTL
percent infected (BHK/HA-Zeo (control)): 96.8%
percent infected (BHK/NZAP-Zeo (ZAP)): 86.5%

BTN3A3
percent infected (BHK/HA-Zeo (control)): 95.2%
percent infected (BHK/NZAP-Zeo (ZAP)): 74.3%

C9orf91
percent infected (BHK/HA-Zeo (control)): 98.9%
percent infected (BHK/NZAP-Zeo (ZAP)): 97.6%

CCL8
percent infected (BHK/HA-Zeo (control)): 96.3%
percent infected (BHK/NZAP-Zeo (ZAP)): 93.5%

CHMP5
percent infected (BHK/HA-Zeo (control)): 98.5%
percent infected (BHK/NZAP-Zeo (ZAP)): 98.4%

CSDA
percent infected (BHK/HA-Zeo (control)): 93.8%
percent infected (BHK/NZAP-Zeo (ZAP)): 89.3%

EPAS1
percent infected (BHK/HA-Zeo (control)): 98.1%
percent infected (BHK/NZAP-Zeo (ZAP)): 92.9%

GALNT2
percent infected (BHK/HA-Zeo (control)): 99%
percent infected (BHK/NZAP-Zeo (ZAP)): 98.9%

ISG20
percent infected (BHK/HA-Zeo (control)): 99.1%
percent infected (BHK/NZAP-Zeo (ZAP)): 98.5%

KIAA1618
percent infected (BHK/HA-Zeo (control)): 97.5%
percent infected (BHK/NZAP-Zeo (ZAP)): 91.2%

MAACRYCCSCLRLRPLSDGPFLLPRRDRALTQLQVRALWSSAGSRAVAVDLGNRKLEISSGKLARFADGSAVVQSGDTAVMVTAVSKTKPSPSQFMPLVVDYRQKAAAAGRIPTNYLRREIGTSDKEILTSRIIDRSIRPLFPAGYFYDTQVLCNLLAVDGVNEPDVLAINGASVALSLSDIPWNGPVGAVRIGIIDGEYVVNPTRKEMSSSTLNLVVAGAPKSQIVMLEASAENILQQDFCHAIKVGVKYTQQIIQGIQQLVKETGVTKRTPQKLFTPSPEIVKYTHKLAMERLYAVFTDYEHDKVSRDEAVNKIRLDTEEQLKEKFPEADPYEIIESFNVVAKEVFRSIVLNEYKRCDGRDLTSLRNVSCEVDMFKTLHGSALFQRGQTQVLCTVTFDSLESGIKSDQVITAINGIKDKNFMLHYEFPPYATNEIGKVTGLNRRELGHGALAEKALYPVIPRDFPFTIRVTSEVLESNGSSSMASACGGSLALMDSGVPISSAVAGVAIGLVTKTDPEKGEIEDYRLLTDILGIEDYNGDMDFKIAGTNKGITALQADIKLPGIPIKIVMEAIQQASVAKKEILQIMNKTISKPRASRKENGPVVETVQVPLSKRAKFVGPGGYNLKKLQAETGVTISQVDEETFSVFAPTPSAMHEARDFITEICKDDQEQQLEFGAVYTATITEIRDTGVMVKLYPNMTAVLLHNTQLDQRKIKHPTALGLEVGQEIQVKYFGRDPADGRMRLSRKVLQSPATTVVRTLNDRSSIVMGEPISQSSSNSQ [PNPT1]
percent infected (BHK/HA-Zeo (control)): 97.7%
percent infected (BHK/NZAP-Zeo (ZAP)): 94.7%

MAADTPGKPSASPMAGAPASASRTPDKPRSAAEHRKSSKPVMEKRRRARINESLAQLKTLILDALRKESSRHSKLEKADILEMTVRHLRSLRRVQVTAALSADPAVLGKYRAGFHECLAEVNRFLAGCEGVPADVRSRLLGHLAACLRQLGPSRRPASLSPAAPAEAPAPEVYAGRPLLPSLGGPFPLLAPPLLPGLTRALPAAPRAGPQGPGGPWRPWLR [HES4]
percent infected (BHK/HA-Zeo (control)): 98.2%
percent infected (BHK/NZAP-Zeo (ZAP)): 96.6%

MAALMTPGTGAPPAPGDFSGEGSQGLPDPSPEPKQLPELIRMKRDGGRLSEADIRGFVAAVVNGSAQGAQIGAMLMAIRLRGMDLEETSVLTQALAQSGQQLEWPEAWRQQLVDKHSTGGVGDKVSLVLAPALAACGCKVPMISGRGLGHTGGTLDKLESIPGFNVIQSPEQMQVLLDQAGCCIVGQSEQLVPADGILYAARDVTATVDSLPLITASILSKKLVEGLSALVVDVKFGGAAVFPNQEQARELAKTLVGVGASLGLRVAAALTAMDKPLGRCVGHALEVEEALLCMDGAGPPDLRDLVTTLGGALLWLSGHAGTQAQGAARVAAALDDGSALGRFERMLAAQGVDPGLARALCSGSPAERRQLLPRAREQEELLAPADGTVELVRALPLALVLHELGAGRSRAGEPLRLGVGAELLVDVGQRLRRGTPWLRVHRDGPALSGPQSRALQEALVLSDRAPFAAPSPFAELVLPPQQ [TYMP]
percent infected (BHK/HA-Zeo (control)): 94.1%
percent infected (BHK/NZAP-Zeo (ZAP)): 89%

MAAPGPALCLFDVDGTLTAPRQKITKEMDDFLQKLRQKIKIGVVGGSDFEKVQEQLGNDVVEKYDYVFPENGLVAYKDGKLLCRQNIQSHLGEALIQDLINYCLSYIAKIKLPKKRGTFIEFRNGMLNVSPIGRSCSQEERIEFYELDKKENIRQKFVADLRKEFAGKGLTFSIGGQISFDVFPDGWDKRYCLRHVENDGYKTIYFFGDKTMPGGNDHEIFTDPRTMGYSVTAPEDTRRICELLFS [PMM2]
percent infected (BHK/HA-Zeo (control)): 94%
percent infected (BHK/NZAP-Zeo (ZAP)): 86.5%

MAAQQRDCGGAAQLAGPAAEADPLGRFTCPVCLEVYEKPVQVPCGHVFCSACLQECLKPKKPVCGVCRSALAPGVRAVELERQIESTETSCHGCRKNFFLSKIRSHVATCSKYQNYIMEGVKATIKDASLQPRNVPNRYTFPCPYCPEKNFDQEGLVEHCKLFHSTDTKSVVCPICASMPWGDPNYRSANFREHIQRRHRFSYDTFVDYDVDEEDMMNQVLQRSIIDQ [ZNF313]
percent infected (BHK/HA-Zeo (control)): 96.6%
percent infected (BHK/NZAP-Zeo (ZAP)): 92.7%

MAASKKAVLGPLVGAVDQGTSSTRFLVFNSKTAELLSHHQVEIKQEFPREGWVEQDPKEILHSVYECIEKTCEKLGQLNIDISNIKAIGVSNQRETTVVWDKITGEPLYNAVVWLDLRTQSTVESLSKRIPGNNNFVKSKTGLPLSTYFSAVKLRWLLDNVRKVQKAVEEKRALFGTIDSWLIWSLTGGVNGGVHCTDVTNASRTMLFNIHSLEWDKQLCEFFGIPMEILPNVRSSSEIYGLMKISHSVKAGALEGVPISGCLGDQSAALVGQMCFQIGQAKNTYGTGCFLLCNTGHKCVFSDHGLLTTVAYKLGRDKPVYYALEGSVAIAGAVIRWLRDNLGIIKTSEEIEKLAKEVGTSYGCYFVPAFSGLYAPYWEPSARGIICGLTQFTNKCHIAFAALEAVCFQTREILDAMNRDCGIPLSHLQVDGGMTSNKILMQLQADILYIPVVKPSMPETTALGAAMAAGAAEGVGVWSLEPEDLSAVTMERFEPQINAEESEIRYSTWKKAVMKSMGWVTTQSPESGDPSIFCSLPLGFFIVSSMVMLIGARYISGIP [GK]
percent infected (BHK/HA-Zeo (control)): 93.6%

MAATEISVLSEQFTKIKELELMPEKGLKEEEKDGVCREKDHRSPSELEAERTSGAFQDSVLEEEVELVLAPSEESEKYILTLQTVHFTSEAVELQDMSLLSIQQQEGVQVVVQQPGPGLLWLEEGPRQSLQQCVAISIQQELYSPQEMEVLQFHALEENVMVASEDSKLAVSLAETTGLIKLEEEQEKNQLLAERTKEQLFFVETMSGDERSDEIVLTVSNSNVEEQEDQPTAGQADAEKAKSTKNQRKTKGAKGTFHCDVCMFTSSRMSSFNRHMKTHTSEKPHLCHLCLKTFRTVTLLRNHVNTHTGTRPYKCNDCNMAFVTSGELVRHRRYKHTHEKPFKCSMCKYASVEASKLKRHVRSHTGERPFQCCQCSYASRDTYKLKRHMRTHSGEKPYECHICHTRFTQSGTMKIHILQKHGENVPKYQCPHCATIIARKSDLRVHMRNLHAYSAAELKCRYCSAVFHERYALIQHQKTHKNEKRFKCKHCSYACKQERHMTAHIRTHTGEKPFTCLSCNKCFRQKQLLNAHFRKYHDANFIPTVYKCSKCGKGFSRWINLHRHSEKCGSGEAKSAASGKGRRTRKRKQTILKEATKGQKEAAKGWKEAANGDEAAAEEASTTKGEQFPGEMFPVACRETTARVKEEVDEGVTCEMLLNTMDK [CTCFL]
percent infected (BHK/NZAP-Zeo (ZAP)): 82.3%

MADDQGCIEEQGVEDSANEDSVDAKPDRSSFVPSLFSKKKKNVTMRSIKTTRDRVPTYQYNMNFEKLGKCIIINNKNFDKVTGMGVRNGTDKDAEALFKCFRSLGFDVIVYNDCSCAKMQDLLKKASEEDHTNAACFACILLSHGEENVIYGKDGVTPIKDLTAHFRGDRCKTLLEKPKLFFIQACRGTELDDGIQADSGPINDTDANPRYKIPVEADFLFAYSTVPGYYSWRSPGRGSWFVQALCSILEEHGKDLEIMQILTRVNDRVARHFESQSDDPHFHEKKQIPCVVSMLTKELYFSQ [CASP7]
percent infected (BHK/HA-Zeo (control)): 98.3%
percent infected (BHK/NZAP-Zeo (ZAP)): 97.3%

MADIKTGIFAKNVQKRLNRAQEKVLQKLGKADETKDEQFEEYVQNFKRQEAEGTRLQRELRGYLAAIKGMQEASMKLTESLHEVYEPDWYGREDVKMVGEKCDVLWEDFHQKLVDGSLLTLDTYLGQFPDIKNRIAKRSRKLVDYDSARHHLEALQSSKRKDESRISKAEEEFQKAQKVFEEFNVDLQEELPSLWSRRVGFYVNTFKNVSSLEAKFHKEIAVLCHKLYEVMTKLGDQHADKAFTIQGAPSDSGPLRIAKTPSPPEEPSPLPSPTASPNHTLAPASPAPARPRSPSQTRKGPPVPPLPKVTPTKELQQENIISFFEDNFVPEISVTTPSQNEVPEVKKEETLLDLDFDPFKPEVTPAGSAGVTHSPMSQTLPWDLWTTSTDLVQPASGGSFNGFTQPQDTSLFTMQTDQSMICNLAESEQAPPTEPKAEEPLAAVTPAVGLDLGMDTRAEEPVEEAVIIPGADADAAVGTLVSAAEGAPGEEAEAEKATVPAGEGVSLEEAKIGTETTEGAESAQPEAEELEATVPQEKVIPSVVIEPASNHEEEGENEITIGAEPKETTEDAAPPGPTSETPELATEQKPIQDPQPTPSAPAMGAADQLASAREASQELPPGFLYKVETLHDFEAANSDELTLQRGDVVLVVPSDSEADQDAGWLVGVKESDWLQYRDLATYKGLFPENFTRRLD [AMPH]
percent infected (BHK/HA-Zeo (control)): 98%
percent infected (BHK/NZAP-Zeo (ZAP)): 91.7%

MAEAHQAVAFQFTVTPDGIDLRLSHEALRQIYLSGLHSWKKKFIRFKNGIITGVYPASPSSWLIVVVGVMTTMYAKIDPSLGIIAKINRTLETANCMSSQTKNVVSGVLFGTGLWVALIVTMRYSLKVLLSYHGWMFTEHGKMSRATKIWMGMVKIFSGRKPMLYSFQTSLPRLPVPAVKDTVNRYLQSVRPLMKEEDFKRMTALAQDFAVGLGPRLQWYLKLKSWWATNYVSDWWEEYIYLRGRGPLMVNSNYYAMDLLYILPTHIQAARAGNAIHAILLYRRKLDREEIKPIRLLGSTIPLCSAQWERMFNTSRIPGEETDTIQHMRDSKHIVVYHRGRYFKVWLYHDGRLLKPREMEQQMQRILDNTSEPQPGEARLAALTAGDRVPWARCRQAYFGRGKNKQSLDAVEKAAFFVTLDETEEGYRSEDPDTSMDSYAKSLLHGRCYDRWFDKSFTFVVFKNGKMGLNAEHSWADAPIVAHLWEYVMSIDSLQLGYAEDGHCKGDINPNIPYPTRLQWDIPGECQEVIETSLNTANLLANDVDFHSFPFVAFGKGIIKKCRTSPDAFVQLALQLAHYKDMGKFCLTYEASMTRLFREGRTETVRSCTTESCDFVRAMVDPAQTVEQRLKLFKLASEKHQHMYRLAMTGSGIDRHLFCLYVVSKYLAVESPFLKEVLSEPWRLSTSQTPQQQVELFDLENNPEYVSSGGGFGPVADDGYGVSYILVGENLINFHISSKFSCPETDSHRFGRHLKEAMTDIITLFGLSSNSKK [CPT1A]
percent infected (BHK/HA-Zeo (control)): 89.9%
percent infected (BHK/NZAP-Zeo (ZAP)): 97.4%

This is a noisy data set.
